# Measurements reported in PubChem BioAssay AID624297 (National Center for Advancing Translational Sciences (NCATS), 2012).
# The campaign covered roughly 340,000 compounds. About 6,200 (1.8%) were called active. Inconclusive means that the source gave no clear call. Such entries were picked first, then a sample of the others. Calls come from the whole dose curve; as a rule, active = well fitted activation curve with a large enough effect; inconclusive = small, poorly fitted or top-dose-only effect; inactive = no such curve, though single readings can be large or run the other way. Potencies beside an inconclusive call are fits to weak or partial responses and may not hold up.
# Assay: A quantitative high throughput screen for small molecules that induce DNA re-replication in SW480 colon adenocarcinoma cells. Note: nearly all actives have a fitted effect of over 55% in size.
# Details: Hoechst DNA content imaging, 48 h; series mostly up to 46.1 µM
# In short: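 First, 250 cells per well were seeded. Next, compound or vehicle (23 nL) was pinned in, plates sat 48 hr at 37 C. Finally Hoechst was added for 40 min before fluorescence scanning.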
# Potency is the fitted concentration of half-maximal effect.
row,SMILES,Potency
1,O=C(NCCC1=CCCCC1)c1ccc(Cl)c(S(=O)(=O)N2CCCCC2)c1,inactive
2,Cc1ccc(-c2nnc(N3CCN(C(=O)CN4CCOCC4)CC3)c3ccccc23)cc1,inactive
3,CN=C1SC(CC(=O)Nc2ccc(F)cc2F)C(=O)N1/N=C/c1ccc(OC(F)F)c(OC)c1 (centres undefined),inactive
4,O=C(O)c1ccc(/C=N\Nc2ccc(S(=O)(=O)N3CCOCC3)cc2[N+](=O)[O-])cc1,inactive
5,COc1ccc(/C=C/C(=O)c2ccc(C(=O)/C=C/c3ccc(OC)c(OC)c3)cc2)cc1OC,active: 8.2 µM
6,CCCCN(C(=O)c1cnc(C)cn1)c1c(N)n(CCC)c(=O)[nH]c1=O,"inconclusive: 0.517 µM [activator, full curve, poor fit]"
7,COc1ccc(OC)c(NC(=O)NNC(=O)COc2ccc(F)cc2F)c1,"inconclusive: 29.1 µM [activator, single point]"
8,COc1cc(CC(=O)OCC(=O)Nc2cc([N+](=O)[O-])ccc2F)cc(OC)c1OC,"inconclusive: 16.4 µM [activator, partial curve, poor fit]"
9,CCN(CC)c1ccc(C(=O)N/N=C(\C)c2cccnc2)cc1,inactive
10,N#C/C(=C\C=C\c1ccccc1)C(=O)NCc1ccco1,"inconclusive: 29.1 µM [activator, partial curve, poor fit]"
11,CCCn1c2ccccc2c2nc3ccccc3nc21,"inconclusive: 23.1 µM [activator, single point]"
12,O=C(CC1CCCCC1)Nc1nc2ccccc2s1,inactive
13,Cc1cccc(NC(=O)CNC(=O)c2ccc3nc[nH]c3c2)c1C,"inconclusive: 29.1 µM [activator, single point]"
14,S=C(Nc1ccccc1)N1CCCCCC1,inactive
15,CCCc1nc2ccc(NC(=O)NCCC(=O)OCC)cc2c(=O)n1Cc1cccc(Cl)c1,inactive
16,Cc1ccc(C(=O)c2sc3c(c2N)c(=O)[nH]c(=O)n3CCc2ccccc2)cc1,"inconclusive: 32.6 µM [activator, partial curve, poor fit]"
17,CCOc1ccc(/C=N/NC(=O)c2cc3c(OC)cc(OC)cc3[nH]2)cc1OC,"inconclusive: 32.6 µM [activator, single point]"
18,CC(=O)c1c(COC(=O)c2ccc(C)cc2)nc2ccccc2[n+]1[O-],"inconclusive: 18.4 µM [activator, single point]"
19,COC(=O)c1c(-c2cccnc2)csc1NC(=O)c1ccc2c(c1)OCO2,"inconclusive: 29.1 µM [activator, single point]"
20,CCN(CC)c1ccc(/C=N/NC(=O)c2ccc3c(c2)OCCO3)cc1,"inconclusive: 29.1 µM [activator, single point]"
21,FC(F)(F)c1cccc(N2CCN(C3CC4CCC3C4)CC2)c1 (centres undefined),"inconclusive: 0.0046 µM [activator, partial curve, poor fit]"
22,O=C(NCC1CCCO1)c1cnn2c(C(F)F)cc(C3CC3)nc12 (centres undefined),inactive
23,COc1ccc(C(=O)Nc2cccc(-c3cc4ccccc4oc3=O)c2)cc1[N+](=O)[O-],"inconclusive: 29.1 µM [activator, partial curve, poor fit]"

row,SMILES,Potency
1,COc1cccc(OCc2cc(C(=O)N(C)Cc3nc4ccccc4[nH]3)no2)c1,"inconclusive: 29.1 µM [activator, single point]"
2,COc1ccc2nccc(/C=C/c3ccnc4ccc(OC)cc34)c2c1,active: 23.1 µM
3,CCOC(=O)Cc1nn(Cc2nc(-c3ccc(C#N)cc3)cs2)c(=O)c2ccccc12,"inconclusive: 4.11 µM [activator, single point]"
4,COc1cccc(CNC(=O)c2ccccc2NC(=O)C2=C(C)OCCS2)c1,"inconclusive: 3.26 µM [activator, single point]"
5,CCOC(=O)C1(C)NC(c2ccco2)C2C(=O)N(C)C(=O)C21 (centres undefined),"inconclusive: 2.59 µM [activator, full curve, poor fit]"
6,CC(C)c1ccc(C(=O)NNC(=O)c2ccncc2)cc1,inactive
7,Cn1c(=O)n(C)c2cc(S(=O)(=O)Nc3cc(Cl)ccc3O)ccc21,"inconclusive: 0.146 µM [activator, full curve, poor fit]"
8,CCCCc1cc(=O)oc2cc(OCC(=O)NCCN3CCOCC3)ccc12,inactive
9,O=C(O)/C=C\C(=O)Nc1ccccc1C#Cc1ccc(Br)cc1,"inconclusive: 18.4 µM [activator, single point]"
10,Cc1cccc(CNC(=O)c2ccccc2NC(=O)C2=CSCCO2)c1,"inconclusive: 0.058 µM [activator, full curve, poor fit]"
11,COc1ccc(NS(=O)(=O)c2ccc3c(c2)CCCN3C(C)=O)cc1,"inconclusive: 32.6 µM [activator, partial curve, poor fit]"
12,CCS(=O)(=O)Nc1ccc(C2=NN(C(=O)c3ccco3)C(c3ccco3)C2)cc1 (centres undefined),"inconclusive: 23.1 µM [activator, single point]"
13,Fc1cccc(CNCC2CCCO2)c1 (centres undefined),"inconclusive: 4.11 µM [activator, partial curve, poor fit]"
14,Cc1ccc(C)n1-n1cnc2sc3c(c2c1=O)CCCCC3,"inconclusive: 6.51 µM [activator, partial curve, poor fit]"
15,Cc1ccc2cc(C)c3nnc(SCC(=O)c4cccs4)n3c2c1C,inactive
16,COc1ccccc1NNC(=O)C(O)(c1ccccc1)c1ccccc1,inactive
17,COc1ccc(-n2cc(-c3ccccc3)c3c(N4CCN(CCO)CC4)ncnc32)cc1,"inconclusive: 15.8 µM [activator, single point]"
18,CCN(CC)S(=O)(=O)c1ccc(NN)nc1,"inconclusive: 23.1 µM [activator, single point]"
19,COC(=O)c1ccsc1NC(=O)CCS(=O)(=O)c1ccc(Cl)cc1,"inconclusive: 16.4 µM [activator, single point]"
20,CCCNC(=O)C1(CC2CC(c3ccccc3)=NO2)CCN(C(=O)CCCCCBr)CC1 (centres undefined),"inconclusive: 3.66 µM [activator, full curve, poor fit]"
21,COc1ccc(S(=O)(=O)N2CCN(C(=O)c3c(C)nn(-c4ccccc4)c3Cl)CC2)cc1,inactive
22,COc1ccc(NC(=O)c2ccc([N+](=O)[O-])s2)c([N+](=O)[O-])c1,"inconclusive: 7.31 µM [activator, partial curve]"
23,O=C(Nc1cc(Cl)ccc1Oc1ccccc1)C1=COCCO1,inactive

row,SMILES,Potency
1,CCOc1ccc(Nc2oc(-c3ccccc3Cl)nc2C#N)cc1,"inconclusive: 5.17 µM [activator, full curve]"
2,O=C(N/N=C/c1ccc(Cl)cc1)c1cc2c(s1)-c1ccccc1CC2,"inconclusive: 29.1 µM [activator, single point]"
3,O=C(Nc1cccc(/C=C/c2ccccn2)c1)c1ccc(-n2cncn2)c([N+](=O)[O-])c1,inactive
4,Cc1ccc(-n2cnc(N)c2C(=O)c2cccc([N+](=O)[O-])c2)cc1,"inconclusive: 1.64 µM [activator, full curve, poor fit]"
5,CCNC(=O)N1CCC(n2nccc2NC(=O)CCOc2ccccc2)CC1,"inconclusive: 0.092 µM [activator, full curve, poor fit]"
6,O=C1CC(N2CCN(c3ncccn3)CC2)C(=O)N1CCc1ccccc1 (centres undefined),"inconclusive: 29.1 µM [activator, single point]"
7,O=C1c2ccccc2NC(c2ccc([N+](=O)[O-])cc2)N1O (centres undefined),"inconclusive: 3.26 µM [activator, full curve]"
8,Cc1cc(C)cc(C(=O)OCC(=O)Nc2cccc(S(=O)(=O)NC3=NCCCCC3)c2)c1,"inconclusive: 1.84 µM [activator, partial curve, poor fit]"
9,CCOC(=O)C1CCN(Cc2ccc(Cl)c(Cl)c2)CC1,inactive
10,O=Cc1ccc(C(=O)OCC(=O)NC(=O)Nc2ccccc2F)cc1,inactive
11,CCN(CC(=O)Nc1c(F)cccc1F)C(=O)c1cccnc1Sc1ccccc1,"inconclusive: 0.116 µM [activator, full curve, poor fit]"
12,COc1cc2c(c(OC)c1OC)-c1c(cc3c(c1OC)OCO3)[C@@H](OC(C)=O)[C@H](C)[C@H](C)C2,"inconclusive: 0.58 µM [activator, single point]"
13,Nc1ccc(-c2nc(-c3ccccc3)nc3ccccc23)cc1,active: 23.1 µM
14,N/C(=N\OC(=O)COc1ccc(Cl)cc1)c1cccnc1,inactive
15,CC/C(C)=N/Nc1cccc([N+](=O)[O-])c1,inactive
16,COc1ccc(C(=O)COC(=O)CN2C(=O)c3ccccc3C2=O)c(OC)c1,inactive
17,NC(=O)c1nsc(C(=O)N(c2ccccc2F)C(C(=O)NCc2ccc(F)cc2)c2ccc(O)cc2)c1N (centres undefined),"inconclusive: 29.1 µM [activator, single point]"
18,COc1cc(C2C3=C(CCCC3=O)Nc3[nH]n(-c4ccccc4)c(=O)c32)ccc1OC(C)=O (centres undefined),active: 20.6 µM
19,COC(=O)Nc1sc2c(c1C(=O)NCc1ccco1)CCCC2,inactive
20,COc1ccccc1-n1cc(-c2ccccc2)[nH]c1=S,"inconclusive: 29.1 µM [activator, single point]"
21,COc1cc2cnc(-c3ccccc3)c(-c3cc(OC)c(OC)c(OC)c3)c2cc1OC,"inconclusive: 23.1 µM [activator, single point]"
22,COc1ccc(C)cc1CN(C)c1ccc(S(=O)(=O)N2CCN(C)CC2)cn1,"inconclusive: 29.1 µM [activator, single point]"
23,COc1cc2sc3ccc(C#Cc4ccc(N)cc4)cc3c(=O)c2cc1OC,"inconclusive: 7.31 µM [activator, partial curve, poor fit]"

# Quoted at random: 3 compounds from above, in no set order.
row,SMILES,Potency
10,O=Cc1ccc(C(=O)OCC(=O)NC(=O)Nc2ccccc2F)cc1,inactive
18,COc1cc(C2C3=C(CCCC3=O)Nc3[nH]n(-c4ccccc4)c(=O)c32)ccc1OC(C)=O (centres undefined),active: 20.6 µM
21,COc1cc2cnc(-c3ccccc3)c(-c3cc(OC)c(OC)c(OC)c3)c2cc1OC,"inconclusive: 23.1 µM [activator, single point]"
